These are yes or no findings as the source states them, for the method shown. Some binding calls cover weakened binding; strength is not graded here.

Sequences of proteins named here, by UniProt entry; tags and fusion partners are left off.
UniProt Q02223: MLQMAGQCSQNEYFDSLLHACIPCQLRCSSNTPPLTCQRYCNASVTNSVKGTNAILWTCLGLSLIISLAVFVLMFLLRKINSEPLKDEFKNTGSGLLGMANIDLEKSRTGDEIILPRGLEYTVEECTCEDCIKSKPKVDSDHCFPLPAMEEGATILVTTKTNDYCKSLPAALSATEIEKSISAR

Experiment [1] has as its target BCMA on the CHO-K1-BCMA recombinant cell strain (UniProt Q02223). Nature of the experiment: flow cytometry on CHO-K1-BCMA cells, PE-labeled anti-human IgG. A general note: In flow cytometry, cells or beads pass a laser one at a time.
Experiment [2] shares this target. The experiment can be described thus: flow cytometry on CHO-K1-BCMA cells, VHH-hIgG1 Fc in 293F supernatant, PE-labeled anti-human IgG, SSC-A against R-PE-A.

B1: single-domain antibody 48-11 (Fc fusion)
chain: QVQLVESGGGLVQAGGSLRLSCAASGHTPSNYAMGWFRQTPGKEREFVAAITWSAVTRDDAIPYYRTSVKGRFTISRDNAKNTVYLQMNSLKPEDTAVYYCAVDASLVMTPTPRYWGQGTQVTVSS
notes: Supernatant was used in flow cytometry, Protein A purified material in Biacore; not shown: human IgG1 Fc, ligated in series to the VHH (vector Lenti-hIgG1-Fc2)
With B1, the binding result in experiment [1] is reported as “binds”.

B2: C2 (Fc fusion)
VHH-Fc fusion chain: QVQLVESGGGLVQAGGSLRLSCVASGLTFSNYAMGWFRQGPGKDRDFVAAITRSDERQNDGVTYYRVSVKGRFTISRDNANDTVYLQMNSLKPEDTAIYYCAADPSLVFSPTLRYWGQGTLVTVSS
notes: also called single-domain antibody C2
With B2, the binding result in experiment [2] is recorded as “binds”.

B3: D10 (Fc fusion)
VHH-Fc fusion chain: QVQLVESGGGLVQPGGSLRLSCAASGFSLNNYVIGWFRQAPGKDRDFVAAITRSDERQNDGVTYYRVSVKGRFTISRDNANDTVYLQMNSLKPEDTAIYYCAADPSLVFSPTPRYWGQGTLVTVSS
notes: also called single-domain antibody D10
Take B3: the binding entry in experiment [2] is “binds”.

B4: single-domain antibody D1 (Fc fusion)
chain: QVQLVESGGGLVQAGGSLRLSCVASGRTSTTSVMGWFRQAPGKERRFVAAITRTDDRQNDGITYYGESVKGRFTISRDNDKNTVYLQMNSLKPEDTAVYYCAAHTSLVFTPDPRYWGQGTPVTVPS
notes: not shown: human IgG1 Fc, ligated in series to the VHH (vector Lenti-hIgG1-Fc2)
Take B4: in experiment [1], the binding result is “binds”.

B5: C6 (Fc fusion)
VHH-Fc fusion chain: QVQLVESGGGLVETGSSLRLSCKSSGHSFSDYSLAWFRQAPGKEREFVAAITWSDVPRDDAVTYYRVDVKGRFTISRDNAKNTVYLQMNSLKPEDTAVYYCAVDASLVMTLTPRYWGQGTQVTVSS
notes: also called single-domain antibody C6
Turning to B5, in experiment [2], the binding result was “binds”.

Values taken from patent US20250171550A1 (NINGBO T MAXIMUM BIOPHARMACEUTICALS, published 2025).
